Experiment [1] deals with DDX54 (human (endogenous in HEK 293-F)) (UniProt Q8TDD1). The experiment in a line: cryo-EM structure.
For experiment [2], the target named is BOP1 (human (endogenous in HEK 293-F)) (UniProt Q14137). Nature of the experiment: cryo-EM structure.

Sequences of proteins named here, by UniProt entry; tags and fusion partners are left off.
UniProt Q8TDD1: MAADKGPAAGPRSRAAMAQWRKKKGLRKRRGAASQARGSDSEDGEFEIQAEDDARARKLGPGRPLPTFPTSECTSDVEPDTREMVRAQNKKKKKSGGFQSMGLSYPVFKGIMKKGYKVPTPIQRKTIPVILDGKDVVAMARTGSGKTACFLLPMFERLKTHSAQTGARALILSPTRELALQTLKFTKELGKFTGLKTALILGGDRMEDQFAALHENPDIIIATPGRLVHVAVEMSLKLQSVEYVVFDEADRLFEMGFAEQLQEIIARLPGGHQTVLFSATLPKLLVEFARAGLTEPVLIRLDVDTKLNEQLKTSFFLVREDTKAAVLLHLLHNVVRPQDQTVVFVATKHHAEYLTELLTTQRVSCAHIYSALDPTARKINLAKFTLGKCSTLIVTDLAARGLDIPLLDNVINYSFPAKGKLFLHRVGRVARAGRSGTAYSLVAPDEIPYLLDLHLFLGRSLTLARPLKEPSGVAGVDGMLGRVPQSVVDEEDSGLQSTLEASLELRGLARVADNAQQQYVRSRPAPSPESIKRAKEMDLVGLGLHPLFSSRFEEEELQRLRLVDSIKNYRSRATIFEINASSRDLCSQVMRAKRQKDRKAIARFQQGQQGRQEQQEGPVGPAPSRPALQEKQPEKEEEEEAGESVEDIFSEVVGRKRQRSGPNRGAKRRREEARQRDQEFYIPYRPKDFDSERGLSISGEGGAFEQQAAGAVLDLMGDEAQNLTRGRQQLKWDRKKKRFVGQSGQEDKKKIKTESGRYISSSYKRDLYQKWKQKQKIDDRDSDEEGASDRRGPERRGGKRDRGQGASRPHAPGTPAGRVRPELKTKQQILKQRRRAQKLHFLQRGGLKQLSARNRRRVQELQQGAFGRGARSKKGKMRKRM
UniProt Q14137: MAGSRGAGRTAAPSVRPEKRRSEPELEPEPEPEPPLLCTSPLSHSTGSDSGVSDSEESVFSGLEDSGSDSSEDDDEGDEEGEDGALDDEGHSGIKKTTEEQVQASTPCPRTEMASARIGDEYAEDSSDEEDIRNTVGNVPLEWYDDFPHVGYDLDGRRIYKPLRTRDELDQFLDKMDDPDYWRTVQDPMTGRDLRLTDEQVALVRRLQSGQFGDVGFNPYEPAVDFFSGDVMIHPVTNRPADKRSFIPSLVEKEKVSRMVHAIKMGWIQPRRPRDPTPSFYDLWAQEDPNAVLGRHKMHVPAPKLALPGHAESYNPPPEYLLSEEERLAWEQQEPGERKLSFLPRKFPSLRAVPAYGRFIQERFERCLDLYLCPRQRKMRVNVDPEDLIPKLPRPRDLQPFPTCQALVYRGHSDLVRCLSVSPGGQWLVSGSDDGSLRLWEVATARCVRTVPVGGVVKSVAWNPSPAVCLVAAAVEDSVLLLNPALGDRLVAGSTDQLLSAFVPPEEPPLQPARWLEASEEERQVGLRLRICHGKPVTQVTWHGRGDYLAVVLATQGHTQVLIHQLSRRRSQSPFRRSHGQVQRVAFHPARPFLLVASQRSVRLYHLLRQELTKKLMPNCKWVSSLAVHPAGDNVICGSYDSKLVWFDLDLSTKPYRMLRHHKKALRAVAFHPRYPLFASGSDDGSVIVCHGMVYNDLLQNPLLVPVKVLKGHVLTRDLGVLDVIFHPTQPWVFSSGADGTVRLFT

No constants are given. Whether binding was seen depends on the method and setting. Some entries that bind do so weakly or less than the wild type.

B1: NOP2/NIP7 complex (complex, UniProt P46087;Q9Y221)
chain 1: MGRKLDPTKEKRGPGRKARKQKGAETELVRFLPAVSDENSKRLSSRARKRAAKRRLGSVEAPKTNKSPEAKPLPGKLPKGISAGAVQTAGKKGPQSLFNAPRGKKRPAPGSDEEEEEEDSEEDGMVNHGDLWGSEDDADTVDDYGADSNSEDEEEGEALLPIERAARKQKAREAAAGIQWSEEETEDEEEEKEVTPESGPPKVEEADGGLQINVDEEPFVLPPAGEMEQDAQAPDLQRVHKRIQDIVGILRDFGAQREEGRSRSEYLNRLKKDLAIYYSYGDFLLGKLMDLFPLSELVEFLEANEVPRPVTLRTNTLKTRRRDLAQALINRGVNLDPLGKWSKTGLVVYDSSVPIGATPEYLAGHYMLQGASSMLPVMALAPQEHERILDMCCAPGGKTSYMAQLMKNTGVILANDANAERLKSVVGNLHRLGVTNTIISHYDGRQFPKVVGGFDRVLLDAPCSGTGVISKDPAVKTNKDEKDILRCAHLQKELLLSAIDSVNATSKTGGYLVYCTCSITVEENEWVVDYALKKRNVRLVPTGLDFGQEGFTRFRERRFHPSLRSTRRFYPHTHNMDGFFIAKFKKFSNSIPQSQTGNSETATPTNVDLPQVIPKSENSSQPAKKAKGAAKTKQQLQKQQHPKKASFQKLNGISKGADSELSTVPSVTKTQASSSFQDSSQPAGKAEGIREPKVTGKLKQRSPKLQSSKKVAFLRQNAPPKGTDTQTPAVLSPSKTQATLKPKDHHQPLGRAKGVEKQQLPEQPFEKAAFQKQNDTPKGPQPPTVSPIRSSRPPPAKRKKSQSRGNSQLLLS
chain 2: MRPLTEEETRVMFEKIAKYIGENLQLLVDRPDGTYCFRLHNDRVYYVSEKIMKLAANISGDKLVSLGTCFGKFTKTHKFRLHVTALDYLAPYAKYKVWIKPGAEQSFLYGNHVLKSGLGRITENTSQYQGVVVYSMADIPLGFGVAAKSTQDCRKVDPMAIVVFHQADIGEYVRHEETLT
Consider B1, for which, in experiment [1], the binding result is reported as “binds”.

B2: FTSJ3 (enzyme, UniProt Q8IY81 1-847)
chain: MGKKGKVGKSRRDKFYHLAKETGYRSRSAFKLIQLNRRFQFLQKARALLDLCAAPGGWLQVAAKFMPVSSLIVGVDLVPIKPLPNVVTLQQDITTERCRQALRKELKTWKVDVVLNDGAPNVGASWVHDAYSQAHLTLMALRLACDFLARGGSFITKVFRSRDYQPLLWIFQQLFRRVQATKPQASRHESAEIFVVCQGFLAPDKVDSKFFDPKFAFKEVEVQAKTVTELVTKKKPKAEGYAEGDLTLYHRTSVTDFLRAANPVDFLSKASEIMVDDEELAQHPATTEDIRVCCQDIRVLGRKELRSLLNWRTKLRRYVAKKLKEQAKALDISLSSGEEDEGDEEDSTAGTTKQPSKEEEEEEEEEQLNQTLAEMKAQEVAELKRKKKKLLREQRKQRERVELKMDLPGVSIADEGETGMFSLSTIRGHQLLEEVTQGDMSAADTFLSDLPRDDIYVSDVEDDGDDTSLDSDLDPEELAGVRGHQGLRDQKRMRLTEVQDDKEEEEEENPLLVPLEEKAVLQEEQANLWFSKGSFAGIEDDADEALEISQAQLLFENRRKGRQQQQKQQLPQTPPSCLKTEIMSPLYQDEAPKGTEASSGTEAATGLEGEEKDGISDSDSSTSSEEEESWEPLRGKKRSRGPKSDDDGFEIVPIEDPAKHRILDPEGLALGAVIASSKKAKRDLIDNSFNRYTFNEDEGELPEWFVQEEKQHRIRQLPVGKKEVEHYRKRWREINARPIKKVAEAKARKKRRMLKRLEQTRKKAEAVVNTVDISEREKVAQLRSLYKKAGLGKEKRHVTYVVAKKGVGRKVRRPAGVRGHFKVVDSRMKKDQRAQQRKEQKKKHKRK
B2: the binding entry in experiment [2] and in experiment [1] was “binds” each time.
